Results deposited as PubChem BioAssay AID1259308 (NCATS, 2017).

Test: 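Knock-downs that increase output of a recombinant reporter protein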 (primary screen)
System: human HEK293 embryonic kidney cells stably expressing firefly luciferase (HEK-CMV-Luc2-Hygro)
Reagents: single siRNA against human genes, 0.8 pmol siRNA per well
Time to read-out: 72 h
Detection: 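Reporter luminescence and viable-cell signal on separate replicate plates, given as percent of non-targeting control and median/MAD z-scores, plus per-cell luciferase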
Direction: total luciferase, z-score: higher = more reporter protein produced
Call rule: 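An siRNA counts as active if its total luciferase robust z-score exceeds 3; genes with two or more such siRNAs out of three were retested with fresh siRNAs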
Meaning of the calls: active = raised luciferase; inactive = no rise
In all, the deposit lists about 59,000 reagents; shown is an unselected part. About 1,510 of all reagents (2.6%) count as active. 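Calls use total luciferase alone and ignore viability, so some active siRNAs may act by altering cell number.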 A number with no mark means an inactive call. The numbers tell different reagents against one gene apart. Further read-outs or replicates are left out here. No sequences are given here.

gene	siRNA no.	total luciferase, z-score
LRRC8E	1	-0.328
LRRC8E	2	-2.32
LRRC8E	3	-1.55
PPP4R1	1	1.37
PPP4R1	2	0.481
PPP4R1	3	0.426
PPP6R2	1	0.865
PPP6R2	2	0.826
PPP6R2	3	1.71
MSRB1	1	1.22
MSRB1	2	0.796
MSRB1	3	-0.495
TEX29	1	1.71
TEX29	2	0.315
TEX29	3	0.883

Records listed so far whose target name begins with P or p (6):
gene	siRNA no.	total luciferase, z-score
PPP4R1	1	1.37
PPP4R1	2	0.481
PPP4R1	3	0.426
PPP6R2	1	0.865
PPP6R2	2	0.826
PPP6R2	3	1.71

The list goes on:
gene	siRNA no.	total luciferase, z-score
EDDM3A	1	-0.747
EDDM3A	2	0.08
EDDM3A	3	-0.941
UQCC2	1	0.617
UQCC2	2	1.54
UQCC2	3	-0.268
OR1A2	1	0.826
OR1A2	2	-0.0185
OR1A2	3	1.37
